According to patent publication US20250345458A1, “COMPLEXING AGENT SALT FORMULATIONS OF PHARMACEUTICAL COMPOUNDS AT LOW STOICHIOMETRIC RATIOS” (Bexson Biomedical, Inc., priority 2022, published 2025):
At least one compound was matched to its structure with a doubt left.

How the values were obtained:
[1] = pH of API formulations (pH meter); format: physicochemical; conditions: 1:1 ratio of API to CapAcid
[2] = API-CapAcid salts prepared in ethanol, then 70 mg of solid added to 1 mL water (visual); format: physicochemical
[3] = Dissolution of API freebase in aqueous CapAcid / Captisol solutions at defined API:CapAcid ratios, visual inspection and NaOH titration; conditions: for Successful in a 70 mg/mL API-CapAcid Formulation (Y/N): 70 mg/mL FB

CCC(CC)COC(=O)[C@H](C)N[P@](=O)(OC[C@H]1O[C@@](C#N)(c2ccc3c(N)ncnn23)[C@H](O)[C@@H]1O)Oc1ccccc1 [Remdesivir]
pH of the solution before titration [1]: 0.72 | pH of the ethanol solution prior to titration ([2]; API FB 100 mg + CapAcid 1 molar equivalent (H^+) in 10 mL 200 proof ethanol): 1.18 | dissolution of 70 mg of the ethanol-prepared API-CapAcid solid in 1 mL water ([2]; visual, vortexed): did not dissolve in the water | concentration (FB equivalents) at which the freebase dissolved ([3]; 1:1 ratio of API to CapAcid (relative to the cyclodextrin), water): 33300 µg/mL | pH at which the freebase began to crash out on titration with NaOH ([3]; 1:1 ratio of API to CapAcid, 33.3 mg/mL): 1.83 | Successful in a 70 mg/mL API-CapAcid Formulation (Y/N) ([3]; water): N | Successful in a 70 mg/mL API-CapAcid Formulation (Y/N) ([3]; water, listed as remdesivir): unsuccessful
